Experimental data as given in article PMC10333294.

Protein sequences, listed by entry. Tags and fused reporters are not part of them. Lines headed by an entry give the natural chain unless they say otherwise; changes in a name come on top.
UniProt Q9Y4X5: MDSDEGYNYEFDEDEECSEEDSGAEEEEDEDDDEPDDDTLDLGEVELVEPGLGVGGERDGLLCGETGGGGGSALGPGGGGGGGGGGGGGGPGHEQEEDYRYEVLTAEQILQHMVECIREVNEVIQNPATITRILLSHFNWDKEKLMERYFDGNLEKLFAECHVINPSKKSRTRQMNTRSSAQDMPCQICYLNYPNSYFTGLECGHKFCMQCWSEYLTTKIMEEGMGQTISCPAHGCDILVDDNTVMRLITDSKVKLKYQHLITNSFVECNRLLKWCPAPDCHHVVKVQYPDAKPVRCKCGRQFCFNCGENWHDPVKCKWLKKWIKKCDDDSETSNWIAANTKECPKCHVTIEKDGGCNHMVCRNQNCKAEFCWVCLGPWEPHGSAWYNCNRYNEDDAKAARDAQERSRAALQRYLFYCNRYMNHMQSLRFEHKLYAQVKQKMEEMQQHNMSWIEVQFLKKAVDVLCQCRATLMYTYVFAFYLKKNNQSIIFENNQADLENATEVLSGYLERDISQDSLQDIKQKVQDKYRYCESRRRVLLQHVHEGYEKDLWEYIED
UniProt P78527: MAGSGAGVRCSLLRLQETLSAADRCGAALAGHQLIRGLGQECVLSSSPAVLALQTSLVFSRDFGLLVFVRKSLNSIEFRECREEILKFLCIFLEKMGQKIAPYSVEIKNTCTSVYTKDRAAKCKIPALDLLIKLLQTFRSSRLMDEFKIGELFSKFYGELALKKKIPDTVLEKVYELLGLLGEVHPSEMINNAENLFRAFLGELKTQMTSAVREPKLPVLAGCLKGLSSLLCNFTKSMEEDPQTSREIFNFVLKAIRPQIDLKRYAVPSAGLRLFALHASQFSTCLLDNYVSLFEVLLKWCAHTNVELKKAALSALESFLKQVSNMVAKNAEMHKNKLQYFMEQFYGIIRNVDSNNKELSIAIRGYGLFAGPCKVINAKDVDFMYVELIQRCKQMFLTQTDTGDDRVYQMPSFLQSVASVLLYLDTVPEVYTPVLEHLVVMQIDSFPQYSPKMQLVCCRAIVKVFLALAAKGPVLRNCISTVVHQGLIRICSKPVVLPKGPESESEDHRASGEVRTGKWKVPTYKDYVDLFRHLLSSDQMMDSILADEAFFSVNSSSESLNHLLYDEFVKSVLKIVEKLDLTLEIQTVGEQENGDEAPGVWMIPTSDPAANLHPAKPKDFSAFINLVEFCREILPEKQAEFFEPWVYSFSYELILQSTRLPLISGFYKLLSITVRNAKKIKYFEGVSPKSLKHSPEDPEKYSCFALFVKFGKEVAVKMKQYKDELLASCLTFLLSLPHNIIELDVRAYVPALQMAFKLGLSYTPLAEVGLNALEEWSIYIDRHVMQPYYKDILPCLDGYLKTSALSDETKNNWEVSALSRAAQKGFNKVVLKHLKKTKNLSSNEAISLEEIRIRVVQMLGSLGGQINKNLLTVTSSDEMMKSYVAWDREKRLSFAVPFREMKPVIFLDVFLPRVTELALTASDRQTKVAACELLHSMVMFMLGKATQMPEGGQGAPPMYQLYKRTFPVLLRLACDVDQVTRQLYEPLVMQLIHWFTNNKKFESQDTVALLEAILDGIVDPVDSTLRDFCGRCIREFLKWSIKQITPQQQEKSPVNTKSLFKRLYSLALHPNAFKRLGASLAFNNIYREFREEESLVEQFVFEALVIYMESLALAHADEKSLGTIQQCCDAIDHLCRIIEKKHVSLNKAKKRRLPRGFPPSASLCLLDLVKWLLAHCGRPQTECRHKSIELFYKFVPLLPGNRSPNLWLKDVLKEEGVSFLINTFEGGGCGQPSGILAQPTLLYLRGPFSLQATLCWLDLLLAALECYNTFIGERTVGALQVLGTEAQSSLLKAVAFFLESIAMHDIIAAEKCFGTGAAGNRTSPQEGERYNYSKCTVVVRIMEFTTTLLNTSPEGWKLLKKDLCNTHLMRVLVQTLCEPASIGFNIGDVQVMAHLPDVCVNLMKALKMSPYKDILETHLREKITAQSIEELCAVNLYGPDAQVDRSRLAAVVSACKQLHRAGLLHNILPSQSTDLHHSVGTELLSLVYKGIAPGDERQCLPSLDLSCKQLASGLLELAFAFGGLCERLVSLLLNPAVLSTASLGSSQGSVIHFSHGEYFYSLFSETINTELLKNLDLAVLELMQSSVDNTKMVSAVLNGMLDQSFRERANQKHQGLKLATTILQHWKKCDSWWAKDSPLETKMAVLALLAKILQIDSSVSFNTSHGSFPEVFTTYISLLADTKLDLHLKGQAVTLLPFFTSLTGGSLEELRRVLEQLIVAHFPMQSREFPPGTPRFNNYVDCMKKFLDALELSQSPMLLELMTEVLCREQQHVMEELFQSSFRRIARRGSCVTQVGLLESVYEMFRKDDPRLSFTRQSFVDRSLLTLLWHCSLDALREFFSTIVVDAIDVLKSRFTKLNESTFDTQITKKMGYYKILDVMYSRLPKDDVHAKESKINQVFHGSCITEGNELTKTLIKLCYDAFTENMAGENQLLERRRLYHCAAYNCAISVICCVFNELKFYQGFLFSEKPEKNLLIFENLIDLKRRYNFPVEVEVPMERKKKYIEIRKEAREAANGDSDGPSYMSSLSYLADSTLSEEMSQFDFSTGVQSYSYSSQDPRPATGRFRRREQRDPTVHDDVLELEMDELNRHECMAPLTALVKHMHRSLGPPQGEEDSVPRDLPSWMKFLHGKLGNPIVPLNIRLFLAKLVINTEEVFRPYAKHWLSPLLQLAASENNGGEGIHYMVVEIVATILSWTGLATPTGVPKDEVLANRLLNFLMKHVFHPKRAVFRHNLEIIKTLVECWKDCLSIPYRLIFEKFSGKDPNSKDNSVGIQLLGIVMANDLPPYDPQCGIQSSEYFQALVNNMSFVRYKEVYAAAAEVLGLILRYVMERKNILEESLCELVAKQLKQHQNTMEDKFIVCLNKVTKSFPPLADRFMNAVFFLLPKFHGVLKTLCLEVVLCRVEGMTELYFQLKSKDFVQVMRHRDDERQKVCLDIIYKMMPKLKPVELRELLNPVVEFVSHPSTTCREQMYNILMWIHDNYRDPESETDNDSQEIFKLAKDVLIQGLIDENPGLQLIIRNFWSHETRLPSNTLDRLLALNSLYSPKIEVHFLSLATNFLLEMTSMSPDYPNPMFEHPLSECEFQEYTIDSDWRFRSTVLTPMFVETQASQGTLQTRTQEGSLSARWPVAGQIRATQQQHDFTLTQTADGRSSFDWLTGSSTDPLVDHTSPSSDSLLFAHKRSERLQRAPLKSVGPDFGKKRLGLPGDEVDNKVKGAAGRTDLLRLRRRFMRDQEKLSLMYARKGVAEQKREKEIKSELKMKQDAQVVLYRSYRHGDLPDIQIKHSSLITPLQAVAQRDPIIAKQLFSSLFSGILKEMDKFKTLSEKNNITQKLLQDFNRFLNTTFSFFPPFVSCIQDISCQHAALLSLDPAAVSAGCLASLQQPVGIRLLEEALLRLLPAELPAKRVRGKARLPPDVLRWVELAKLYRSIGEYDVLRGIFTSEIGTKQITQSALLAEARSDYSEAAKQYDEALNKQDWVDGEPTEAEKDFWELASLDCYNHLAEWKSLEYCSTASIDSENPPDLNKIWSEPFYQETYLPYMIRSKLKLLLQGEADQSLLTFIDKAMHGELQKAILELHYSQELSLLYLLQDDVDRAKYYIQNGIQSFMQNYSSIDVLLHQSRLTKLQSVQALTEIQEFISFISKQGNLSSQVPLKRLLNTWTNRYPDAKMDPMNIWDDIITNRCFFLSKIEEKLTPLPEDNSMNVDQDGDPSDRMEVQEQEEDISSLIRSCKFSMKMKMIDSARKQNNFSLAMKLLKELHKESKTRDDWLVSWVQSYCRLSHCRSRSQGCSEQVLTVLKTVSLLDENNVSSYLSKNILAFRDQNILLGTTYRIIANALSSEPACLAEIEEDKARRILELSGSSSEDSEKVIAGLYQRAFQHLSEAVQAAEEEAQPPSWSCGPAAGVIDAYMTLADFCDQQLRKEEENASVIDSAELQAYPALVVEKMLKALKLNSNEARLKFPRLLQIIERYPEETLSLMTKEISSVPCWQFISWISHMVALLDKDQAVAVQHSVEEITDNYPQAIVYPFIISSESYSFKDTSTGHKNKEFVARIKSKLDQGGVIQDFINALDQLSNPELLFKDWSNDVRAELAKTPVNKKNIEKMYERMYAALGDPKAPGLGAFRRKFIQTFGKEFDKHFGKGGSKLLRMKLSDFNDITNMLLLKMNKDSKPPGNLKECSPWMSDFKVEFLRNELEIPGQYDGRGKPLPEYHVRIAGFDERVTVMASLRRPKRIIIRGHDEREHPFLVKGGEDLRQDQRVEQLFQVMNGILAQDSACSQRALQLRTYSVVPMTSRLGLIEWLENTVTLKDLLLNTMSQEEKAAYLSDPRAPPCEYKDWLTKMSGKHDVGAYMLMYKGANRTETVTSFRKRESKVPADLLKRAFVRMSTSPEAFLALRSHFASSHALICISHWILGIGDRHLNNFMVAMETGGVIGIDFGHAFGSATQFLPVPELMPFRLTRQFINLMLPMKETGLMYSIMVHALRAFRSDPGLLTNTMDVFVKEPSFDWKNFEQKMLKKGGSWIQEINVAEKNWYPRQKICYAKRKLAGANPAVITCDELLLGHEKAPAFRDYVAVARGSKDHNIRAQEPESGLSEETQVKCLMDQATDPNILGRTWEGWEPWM

Columns and labels:
[1] = target: ARIH1^-WT-HA (Ariadne RBR E3 ubiquitin-protein ligase 1, HA-tagged) (human) (UniProt Q9Y4X5); test: affinity purification with mass spectrometry; ARIH1^-WT-HA or ARIH1^-C357S-HA transfected into HEK293T for 36 h, immunoprecipitated, trypsin digested on beads, Q Exactive HF-X
[2] = target: ARIH1^-C357S-HA (ligase-dead ARIH1, HA-tagged) (human) (UniProt Q9Y4X5); test: as above

What does the source list for “DNA-PKcs (DNA-dependent protein kinase catalytic subunit), endogenous (from UniProt P78527 1-4128)”?
binding [1]: binds; binding [2]: binds

No constants are given. Whether binding was seen depends on the method and setting. In cells and extracts the contact can be indirect. These calls come from enrichment with a bait or labelling near it, and not all partners need be listed.
